Results published in US4560676A (The Rockefeller University, priority 1981, dated 1985).
Strings that start with PEPTIDE1 are HELM notation: dots part the residues, brackets hold end groups and non-standard residues.

Test: general procedure: Boc solid-phase peptide synthesis; aminoacyl-4-(oxymethyl)phenylacetamidomethyl-resin (PAM)
Settings: whole synthesis

PEPTIDE1{S.D.A.A.V.D.T.S.S.E.I.T.T.K.D.L.K.E.K.K.E.V.V.E.E.A.E.N}$$$$V2.0
difficulty met: the large deletion may have occurred at Lys(Tfa)^17
isolated yield (overall isolated yield based on C-terminal Asn): 31%
